According to article PMC2596967:
These are yes or no findings as the source states them, for the method shown. Binding seen in cells or lysates may run through a third protein. Some results given as binding are weak or reduced against the parent protein; the word gives no strength.

By UniProt entry, the sequences of proteins in these tests, tags left out.
UniProt P29351: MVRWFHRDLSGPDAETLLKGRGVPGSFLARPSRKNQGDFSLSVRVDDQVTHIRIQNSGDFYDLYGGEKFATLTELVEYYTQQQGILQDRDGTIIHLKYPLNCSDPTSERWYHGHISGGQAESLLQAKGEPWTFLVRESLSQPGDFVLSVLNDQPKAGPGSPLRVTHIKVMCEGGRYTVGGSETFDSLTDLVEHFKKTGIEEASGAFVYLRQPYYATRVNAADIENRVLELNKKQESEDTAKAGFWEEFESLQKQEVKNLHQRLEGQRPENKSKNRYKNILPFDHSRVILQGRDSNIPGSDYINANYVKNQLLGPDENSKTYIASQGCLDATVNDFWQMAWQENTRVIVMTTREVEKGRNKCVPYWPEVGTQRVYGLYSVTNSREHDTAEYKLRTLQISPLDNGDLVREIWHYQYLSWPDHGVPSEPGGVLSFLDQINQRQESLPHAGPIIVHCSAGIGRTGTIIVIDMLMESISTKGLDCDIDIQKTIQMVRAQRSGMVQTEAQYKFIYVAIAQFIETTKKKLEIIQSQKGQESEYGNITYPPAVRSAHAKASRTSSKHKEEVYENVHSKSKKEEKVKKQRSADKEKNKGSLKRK
UniProt Q62406: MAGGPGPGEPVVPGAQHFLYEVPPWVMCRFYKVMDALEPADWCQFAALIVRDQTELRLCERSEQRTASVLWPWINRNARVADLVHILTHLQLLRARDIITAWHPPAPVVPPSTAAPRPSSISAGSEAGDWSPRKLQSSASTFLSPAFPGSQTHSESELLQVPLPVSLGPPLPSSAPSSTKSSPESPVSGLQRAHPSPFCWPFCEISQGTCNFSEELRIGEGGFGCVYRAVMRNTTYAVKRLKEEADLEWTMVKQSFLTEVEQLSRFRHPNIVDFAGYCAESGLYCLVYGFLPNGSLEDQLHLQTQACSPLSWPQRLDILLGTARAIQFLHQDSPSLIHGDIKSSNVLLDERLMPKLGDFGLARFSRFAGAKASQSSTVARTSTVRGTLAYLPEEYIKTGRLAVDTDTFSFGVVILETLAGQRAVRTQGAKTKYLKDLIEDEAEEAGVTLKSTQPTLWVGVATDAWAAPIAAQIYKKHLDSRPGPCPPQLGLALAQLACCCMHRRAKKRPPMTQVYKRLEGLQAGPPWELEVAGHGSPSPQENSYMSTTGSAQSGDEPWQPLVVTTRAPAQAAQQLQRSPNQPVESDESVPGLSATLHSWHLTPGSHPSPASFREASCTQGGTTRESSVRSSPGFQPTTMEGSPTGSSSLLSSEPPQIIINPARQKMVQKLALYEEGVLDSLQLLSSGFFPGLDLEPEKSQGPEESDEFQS
UniProt P47811: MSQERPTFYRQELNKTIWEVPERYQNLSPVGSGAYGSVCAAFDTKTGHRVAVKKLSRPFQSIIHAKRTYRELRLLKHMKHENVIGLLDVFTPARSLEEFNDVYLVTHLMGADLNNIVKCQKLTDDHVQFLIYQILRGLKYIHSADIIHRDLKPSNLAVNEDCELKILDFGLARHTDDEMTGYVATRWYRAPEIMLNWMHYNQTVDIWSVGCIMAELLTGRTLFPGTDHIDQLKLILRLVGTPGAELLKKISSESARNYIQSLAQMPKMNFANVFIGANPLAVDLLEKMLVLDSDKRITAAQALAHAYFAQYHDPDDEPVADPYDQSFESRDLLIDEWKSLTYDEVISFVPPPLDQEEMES

Columns and labels:
[1] = target: Src homology 2 domain-containing protein tyrosine phosphatase (SHP-1), endogenous in mouse macrophages (mouse (endogenous in bone marrow-derived MØ lines)) (UniProt P29351); experiment: co-IP; endogenous proteins of mouse MØ lysates; SHP-1 IP subjected to the IRAK-1 kinase assay (reciprocal IP)
[2] = target: IL-1 receptor-associated kinase 1 (IRAK-1), endogenous in mouse macrophages (mouse (endogenous in bone marrow-derived MØ lines)) (UniProt Q62406); experiment: co-IP; endogenous proteins of mouse MØ lysates; IP with 4 µg IRAK-1 or SHP-1 antibody on protein A/G agarose beads, three washes with lysis buffer, western blot; cells naive, L. donovani-infected and/or stimulated with LPS (100 ng/ml)
[3] = target: T1, IKK-β, endogenous in mouse macrophages (mouse (endogenous in bone marrow-derived MØ lines)) (UniProt O88351); experiment: co-IP; endogenous proteins of mouse MØ lysates (no orthovanadate); IPs of IRAK-1 or other kinases loaded on a gel with 32P-labelled poly(Glu4Tyr), SHP-1 band seen by in gel PTP assay; cells at resting state or L. donovani-infected
T1 sequence: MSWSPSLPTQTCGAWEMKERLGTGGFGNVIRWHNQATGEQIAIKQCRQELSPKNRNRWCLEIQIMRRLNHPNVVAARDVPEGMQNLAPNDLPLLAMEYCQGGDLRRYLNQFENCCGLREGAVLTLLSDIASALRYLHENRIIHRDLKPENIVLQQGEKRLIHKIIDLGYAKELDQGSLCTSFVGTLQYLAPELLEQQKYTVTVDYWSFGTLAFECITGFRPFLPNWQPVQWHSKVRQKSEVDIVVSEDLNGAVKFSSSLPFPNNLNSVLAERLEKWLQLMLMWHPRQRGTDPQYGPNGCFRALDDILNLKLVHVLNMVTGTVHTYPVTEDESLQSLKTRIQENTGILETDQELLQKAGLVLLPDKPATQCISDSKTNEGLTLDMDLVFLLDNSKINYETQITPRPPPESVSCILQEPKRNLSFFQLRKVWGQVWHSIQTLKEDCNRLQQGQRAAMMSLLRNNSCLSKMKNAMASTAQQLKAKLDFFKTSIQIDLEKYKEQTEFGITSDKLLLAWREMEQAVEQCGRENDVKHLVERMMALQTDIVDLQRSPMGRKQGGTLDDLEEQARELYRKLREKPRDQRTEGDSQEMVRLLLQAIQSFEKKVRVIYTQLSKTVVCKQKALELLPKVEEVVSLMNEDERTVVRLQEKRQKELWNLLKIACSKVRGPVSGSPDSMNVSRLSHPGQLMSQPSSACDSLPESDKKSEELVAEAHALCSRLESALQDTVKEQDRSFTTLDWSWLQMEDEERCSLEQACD

[4] = target: p38, endogenous in mouse macrophages (mouse (endogenous in bone marrow-derived MØ lines)) (UniProt P47811); experiment: as above
[5] = target: IL-1 receptor-associated kinase 1 (IRAK-1), endogenous in mouse macrophages (mouse (endogenous in bone marrow-derived MØ lines)) (UniProt Q62406); experiment: as above

Substance	binding [1]	binding [2]	binding [3]	binding [4]	binding [5]
IL-1 receptor-associated kinase 1 (IRAK-1), endogenous in mouse macrophages (from UniProt Q62406 1-710)	binds				
Src homology 2 domain-containing protein tyrosine phosphatase (SHP-1), endogenous in mouse macrophages (from UniProt P29351 1-595)		binds	binds	binds	binds
